{
  "sequences": {"note": "By UniProt entry, the sequences of proteins in these tests, tags left out.", "UniProt Q86VP1": "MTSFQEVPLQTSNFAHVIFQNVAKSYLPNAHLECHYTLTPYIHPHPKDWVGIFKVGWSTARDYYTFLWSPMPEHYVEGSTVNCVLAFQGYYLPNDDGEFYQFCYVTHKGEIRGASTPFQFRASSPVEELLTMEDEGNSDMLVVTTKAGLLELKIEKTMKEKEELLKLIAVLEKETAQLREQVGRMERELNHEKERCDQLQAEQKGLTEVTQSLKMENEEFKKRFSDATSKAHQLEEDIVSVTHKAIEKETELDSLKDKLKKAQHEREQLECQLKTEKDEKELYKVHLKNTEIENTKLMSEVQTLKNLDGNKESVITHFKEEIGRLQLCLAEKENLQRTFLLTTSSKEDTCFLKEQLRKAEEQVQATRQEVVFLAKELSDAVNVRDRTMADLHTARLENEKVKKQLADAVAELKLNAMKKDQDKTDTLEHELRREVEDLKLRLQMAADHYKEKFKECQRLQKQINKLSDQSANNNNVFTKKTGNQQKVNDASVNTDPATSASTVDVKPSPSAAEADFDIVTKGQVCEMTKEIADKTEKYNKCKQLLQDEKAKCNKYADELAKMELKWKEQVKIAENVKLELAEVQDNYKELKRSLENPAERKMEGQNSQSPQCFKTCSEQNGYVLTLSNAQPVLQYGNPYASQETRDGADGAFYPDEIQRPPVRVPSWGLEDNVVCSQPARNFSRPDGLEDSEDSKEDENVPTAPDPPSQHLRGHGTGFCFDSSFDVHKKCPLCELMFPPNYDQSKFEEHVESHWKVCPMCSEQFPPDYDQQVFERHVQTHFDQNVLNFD"},
  "source": "patent US20240261378A1",
  "binders": {"B1": {"name": "GST-Galectin-8 (protein, not shown: a dimerising Fc or GST)", "chain": "MMLSLNNLQNIIYNPVIPFVGTIPDQLDPGTLIVIRGHVPSDADRFQVDLQNGSSMKPRADVAFHFNPRFKRAGCIVCNTLINEKWGREEITYDTPFKREKSFEIVIMVLKDKFQVAVNGKHTLLYGHRIGPEKIDTLGIYGKVNIHSIGFSFSSDLQSTQASSLELTEISRENVPKSGTPQLPSNRGGDISKIAPRTVYTKSKDSTVNHTLTCTKIPPMNYVSKRLPFAARLNTPMGPGRTVVVKGEVNANAKSFNVDLLAGKSKDIALHLNPRLNIKAFVRNSFLQESWGEEERNITSFPFSPGMYFEMIIYCDVREFKVAVNGVHSLEYKHRFKELSSIDTLEINGDIHLLEVRSW"}},
  "key": {"NDP52": {"target": "T1, NDP52 (UniProt Q13137)", "T1 sequence (looked up)": "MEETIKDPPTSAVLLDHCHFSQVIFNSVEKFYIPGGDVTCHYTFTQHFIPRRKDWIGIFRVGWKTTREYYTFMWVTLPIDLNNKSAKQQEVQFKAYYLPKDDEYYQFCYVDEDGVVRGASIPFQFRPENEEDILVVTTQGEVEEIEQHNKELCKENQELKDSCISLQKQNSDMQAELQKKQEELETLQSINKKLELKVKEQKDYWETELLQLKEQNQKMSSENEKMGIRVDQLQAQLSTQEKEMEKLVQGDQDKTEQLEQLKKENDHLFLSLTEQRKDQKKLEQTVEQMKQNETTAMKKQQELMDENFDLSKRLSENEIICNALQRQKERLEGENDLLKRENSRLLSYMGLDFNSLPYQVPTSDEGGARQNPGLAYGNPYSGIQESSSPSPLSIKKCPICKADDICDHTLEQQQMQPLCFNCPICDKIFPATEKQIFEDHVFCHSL", "assay": "GST-galectin-8 pull-down with Sequestosome 1-like receptors"}, "TAX1BP1": {"target": "TAX1BP1 (UniProt Q86VP1)", "assay": "GST-galectin-8 pull-down with Sequestosome 1-like receptors"}},
  "note": "These are yes or no findings as the source states them, for the method shown. In cells and extracts the contact can be indirect. Some results given as binding are weak or reduced against the parent protein; the word gives no strength. Tags and fused reporters may be left off the sequences shown.",
  "data": [
    {"binder": "B1", "values": [
      {"measurement": "binding", "setting": "NDP52", "value": "binds"},
      {"measurement": "binding", "setting": "TAX1BP1", "value": "binds"}
    ]}
  ]
}
